Measured values taken from PubChem BioAssay AID485318 (Broad Institute, 2010).
Hit rate of the full screen: of about 1,400 compounds, fewer than 10 were called active.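 How the source made its calls: active means fluorescence-lowering compounds whose fitted half-maximal concentration is at or below ten times the highest valid dose tested; inconclusive means flat curve at 30 to 70% inhibition, or poor fit; inactive means the rest.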 This is one part of the list.

Chains of the proteins cited; added tags and fusions are not shown. Lines headed by an entry give the natural chain unless they say otherwise; changes in a name come on top.
UniProt O15379: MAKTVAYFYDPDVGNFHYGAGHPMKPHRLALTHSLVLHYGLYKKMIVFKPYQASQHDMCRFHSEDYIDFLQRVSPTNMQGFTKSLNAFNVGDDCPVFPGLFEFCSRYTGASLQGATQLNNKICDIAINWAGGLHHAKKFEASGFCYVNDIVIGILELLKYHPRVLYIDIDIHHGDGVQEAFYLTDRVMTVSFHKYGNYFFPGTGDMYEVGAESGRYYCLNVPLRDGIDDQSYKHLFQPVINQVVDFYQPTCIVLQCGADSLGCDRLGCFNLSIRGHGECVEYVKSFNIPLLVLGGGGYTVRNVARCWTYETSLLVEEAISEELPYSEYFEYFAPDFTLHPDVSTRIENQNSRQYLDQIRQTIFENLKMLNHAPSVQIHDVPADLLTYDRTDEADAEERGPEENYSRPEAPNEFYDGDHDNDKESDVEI

Target: Histone deacetylase 3 (Homo sapiens) (UniProt O15379)
Experiment: HDAC3 deacetylase inhibitors, dose response, counter-screen for JMJD2C/GASC1 demethylase inhibitor project, biochemical, fluorescence, cherry-picked samples (AID 485318);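 further: enzyme preincubated with compound before substrate and trypsin were added; 0% = neutral control wells and -100% = SAHA positive control wells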
Conditions: recombinant HDAC3, fluorogenic peptide/trypsin coupled; at 12 µM (top of the series)

| Structure (SMILES) | activity change, negative = inhibition |
| --- | --- |
| C[C@@]12C(=O)Nc3ccc(Br)cc3C(=O)N1[C@H]1c3ccccc3OC[C@@H]1[C@@H]2c1ccccc1 | inactive: 0.113% |
| Cc1occc1-c1nnc(SCC(=O)Nc2ccccc2)n1C(C)c1ccccc1 (centres undefined) | inactive: 0.434% |
| CC(C)(C)c1ccc(C(=O)NNC(=O)c2cccc(Br)c2)cc1 | inactive: -0.391% |
| COCCn1nnnc1C(C(C)C)N1CCCC(C)C1 (centres undefined) | inactive: 0.953% |
| COC(=O)NNC(=S)Nc1cc(OC)ccc1OC | inactive: 1.27% |
| O=c1ccc2c(-c3ccccc3S(=O)(=O)O)c3ccc(O)c(O)c3oc-2c1O | inactive: 0.202% |
| Cc1cc(C)n2nc(C(=O)N3CCCC(Nc4ccc(F)c(F)c4)C3)cc2n1 (centres undefined) | inactive: 0.457% |
| CN(C)CCCN1C(=O)C(=O)/C(=C(/O)c2ccncc2)C1c1ccccc1 (centres undefined) | inactive: -0.0699% |
| C=CCn1c(N2CCCCCC2)nc2c1c(=O)[nH]c(=O)n2C | inactive: -0.748% |
| O=[N+]([O-])c1cc(/C=N/Nc2nc3ccccc3[nH]2)c(O)cc1O | inactive: 0.0861% |
| NC(=O)C1CCN(c2nc(-c3ccccc3Br)cs2)CC1 | inactive: -0.0286% |
| CC(C)NC(=O)Nc1ccc2c(c1)C(=O)N([C@H](C)CO)C[C@@H](C)[C@@H](CN(C)C(=O)NC1CCCCC1)O2 | inactive: 0.967% |
| CCOC(=O)Nc1cc(C)c(Cl)cc1OC | inactive: 1.18% |
| CCN(C[C@H]1N[C@@](CC)(C(=O)OC)[C@H]2C(=O)N(Cc3ccccc3)C(=O)[C@@H]12)S(=O)(=O)c1ccc(C(C)(C)C)cc1 | inactive: 0.413% |
| COc1ccc(/C=N/N(C)c2cc(=O)n(C)c(=O)[nH]2)cc1OC | inactive: 0.29% |
| CC1CN(Cc2c(O)ccc3c2oc(=O)c2ccccc23)CC(C)O1 (centres undefined) | inactive: -0.481% |
| Cc1nn(-c2cccc(C(=O)O)c2)c(C)c1Oc1ccccc1O | inactive: -0.0812% |
| COC(=O)c1cccc(C#CC(NP(=O)(c2ccccc2)c2ccccc2)c2ccccc2)c1 (centres undefined) | inactive: -0.21% |
| O=C(N/N=C/c1ccc(O)cc1)c1cncc(Br)c1 | inactive: -0.0737% |
| CCCCOC(=O)Cn1cnc2ccc(Br)cc2c1=O | inactive: -0.0235% |
| CN1CCN(CC(=O)Nc2ccc(S(=O)(=O)N(C)C)cc2)CC1 | inactive: -0.125% |
| O=C(Cc1ccccc1)NC1(O)C(=O)c2ccccc2C1=O | inactive: 0.188% |
| Nc1ccc2oc(-c3ccccn3)nc2c1 | inactive: 0.396% |

A portion from further up, as a working copy:

| Structure (SMILES) | activity change, negative = inhibition |
| --- | --- |
| COC(=O)NNC(=S)Nc1cc(OC)ccc1OC | inactive: 1.27% |
| O=c1ccc2c(-c3ccccc3S(=O)(=O)O)c3ccc(O)c(O)c3oc-2c1O | inactive: 0.202% |
| Cc1cc(C)n2nc(C(=O)N3CCCC(Nc4ccc(F)c(F)c4)C3)cc2n1 (centres undefined) | inactive: 0.457% |

(further entries)

| Structure (SMILES) | activity change, negative = inhibition |
| --- | --- |
| O=C(NNC(=O)c1cccs1)c1ccc([N+](=O)[O-])cc1 | inactive: -1.01% |
| Cc1nc2sc(C(c3cccc(F)c3)N3CCOCC3)c(O)n2n1 (centres undefined) | inactive: 1.25% |
| CN(C)c1ccc(NC(=S)c2ccccn2)cc1 | inactive: 0.555% |
| COC(=O)c1sc(NC(=O)c2cc3c(s2)CCCC3)nc1C | inactive: -0.358% |
| CCNc1ccc(S(=O)(=O)N(C)C)cc1NCC(=O)Nc1c(F)cccc1F | inactive: 0.472% |
| CCSc1nnc(-c2cccc(S(=O)(=O)N(CC)CC)c2)n1Cc1ccccc1 | inactive: 0.208% |
| Cc1ccc(S(=O)(=O)NCCC(=O)N2CCN(c3cccc(Cl)c3)CC2)cc1C | inactive: -0.362% |
| COc1ccc(C(=O)O/N=C(\C)c2cnccn2)cc1 | inactive: 1.48% |
| CCOC(=O)C(C)Oc1ccsc1C(=O)OC (centres undefined) | inactive: 0.474% |
| CC(=O)c1cccc(NC(=S)NC(=O)CC(C)C)c1 | inactive: -0.0803% |
| CCc1ccc(C(=O)CSc2nc3ccccc3c(=O)[nH]2)cc1 | inactive: 0.0353% |
| O=c1cc(N2CCc3ccccc32)[nH]c(=O)n1Cc1ccc(F)cc1 | inactive: 0.509% |
| CCOC(=O)c1c(NC(=O)c2cc(-c3ccc(O)cc3)on2)sc(C(C)=O)c1C | inactive: 0.792% |
| Oc1ccc(-c2nc3ncccn3c2Nc2ccc3c(c2)OCO3)cc1 | inactive: 0.115% |
| COC(=O)CN1C(=O)[C@H]2[C@@H](/C=C/c3ccccc3)N3C(=O)CN(Cc4ccccn4)C(=O)[C@@]3(Cc3ccccc3)[C@H]2C1=O | inactive: 0.0934% |
| COc1ccc(N/C=C2/CCCCC2=O)cc1 | inactive: -0.432% |
| Cn1c(=O)c(-c2ccccc2)nn2c3ccccc3nc12 | inactive: -0.459% |
| O=C(Cn1nc(-c2ccc(Cl)cc2)ccc1=O)NCC1COCCO1 (centres undefined) | inactive: -0.234% |
| Cn1c(=N)n(CC(O)c2ccccc2)c2ccccc21 (centres undefined) | inactive: 0.562% |
| CN(C)c1ccc(N=Cc2nc(-c3ccccc3)oc2OC(=O)c2ccccc2)cc1 | inactive: -0.11% |
| O=C1NCCC/C1=N/Nc1ccc(F)cc1 | inactive: 0.198% |
| Cc1ccc(-c2csc3nc4cc(C(=O)NC5CCC(O)CC5)ccc4c(=O)n23)cc1 (centres undefined) | inactive: -0.117% |
| COc1ccc(CCNC(=O)CSCc2n[nH]c(=O)[nH]2)cc1OC | inactive: 0.182% |

| Structure (SMILES) | activity change, negative = inhibition |
| --- | --- |
| Cc1ccc(Nc2nnc(SCC(=O)N(C)C3CCS(=O)(=O)C3)s2)cc1 (centres undefined) | inactive: 0.304% |
| CC(C)C[C@@H]1CN=C(N)N1C[C@@H]1CCCN1C[C@H](C)N1C[C@@H](Cc2ccccc2)N(CCc2ccc(Cl)c(Cl)c2)C1=N | inactive: 0.112% |
| COc1ccc(NC(=O)N(C)C[C@H]2Oc3c(NC(=O)C4CC4)cccc3C(=O)N([C@H](C)CO)C[C@@H]2C)cc1 | inactive: 0.036% |
| Cc1noc(C)c1S(=O)(=O)N(C)C[C@H]1Oc2c(NC(=O)Nc3ccccc3)cccc2C(=O)N([C@H](C)CO)C[C@@H]1C | inactive: 0.586% |
| CC1CCN(C(=S)NC(=O)c2cccc([N+](=O)[O-])c2)CC1 | inactive: 0.254% |
| Cc1ccc(C(c2sc3nc(C)nn3c2O)N2CCN(c3ccccc3F)CC2)cc1 (centres undefined) | inactive: 0.0931% |
| N/C(=N\S(=O)(=O)c1cc(C(F)(F)F)cc(C(F)(F)F)c1)c1ccccc1 | inactive: 0.0583% |
| O=C(CSc1nnc(CNC(=O)c2c(F)cccc2Cl)o1)Nc1ccc2c(c1)OCCO2 | inactive: 0.361% |
| CCn1c(CNC(=O)Cc2ccc(OC)cc2)nnc1SCC(=O)NC1CCCCC1 | inactive: -0.567% |
| O=C1c2ccccc2C(=O)C12OC2c1cccc2ccccc12 (centres undefined) | inactive: -0.185% |
| CCN(CC)C(=O)C1c2ccccc2Oc2ccccc21 | inactive: -0.357% |
| Cc1ccc(Cl)cc1N1CCN(C(=O)c2ccc(NS(=O)(=O)c3c(C)noc3C)cc2)CC1 | inactive: 0.244% |
| Cc1cc2ccccn2c1C(=O)c1ccncc1 | inactive: 0.618% |
| CC(C)(C)c1ccc(C(=O)OCc2c(-c3ccccc3)ncc3ccccc23)cc1 | inactive: 0.791% |
| O=c1ccc2cc3c([nH]c4ccc(Br)cc43)oc-2c1O | inactive: 0.247% |
| CCOc1ccc(C(=S)NC2CCCCC2)cc1 | inactive: 0.673% |
| O=C(NNC(=O)C1CCN(S(=O)(=O)c2ccccc2)CC1)c1ccccc1O | inactive: 0.489% |
| Cc1cccc(NC(=S)N2CCN(Cc3ccc4c(c3)OCO4)CC2)c1C | inactive: 0.411% |
| COc1ccc(/C(O)=C/Sc2nnc(Cc3ccccc3)o2)cc1 | inactive: 0.165% |
| COc1ccc(CCNC(=O)c2ccccc2Cl)cc1OC | inactive: 0.428% |
| O=C(C1CCC1)N(CCc1ccccc1)Cc1nc2ccccc2c(=O)[nH]1 | inactive: 0.195% |
| O=C(NCc1cccc(Cl)c1)c1ccc2c(c1)OCO2 | inactive: -0.78% |
| Cc1ccc(C2=[N+]([O-])C(C)(C)CC2)cc1 | inactive: 0.77% |

| Structure (SMILES) | activity change, negative = inhibition |
| --- | --- |
| NC(=O)C1CCN(C(=O)CCSc2ccccc2)CC1 | inactive: 0.0558% |
| COc1ccc(NC(=S)NNC(=O)c2ccc(S(=O)(=O)N3CCOCC3)cc2)cc1 | inactive: 0.24% |
| O=S(=O)(Nc1ccccc1F)c1cccc(NC(=S)NCCN2CCOCC2)c1 | inactive: 0.812% |
| COc1ccc2cc3cc(C(=O)N4CCN(C5CCCCC5)CC4)oc3nc2c1 | inactive: -0.248% |
| CC(=O)C[C@@H](O)CC(=O)[C@H]1OC(=O)CCCCCc2ccccc21 | inactive: 0.73% |
| O=C(NC1CC2CCC1C2)C1COc2ccccc2O1 (centres undefined) | inactive: 0.269% |
| CC(C)(O)[C@H](O)Cc1cc2ccc(=O)oc2cc1O[C@@H]1O[C@H](CO)[C@@H](O)[C@H](O)[C@H]1O | inactive: 0.034% |
| COc1ccc(/C=C/C(=O)OCC(=O)c2ccc[nH]2)cc1 | inactive: -0.313% |
| CCOc1ccc2nc(NC(=O)CS(=O)(=O)c3ccc(C)cc3)sc2c1 | inactive: -0.149% |
| COc1cc(Cl)c(NC2=CC(=O)C(=O)c3ccccc32)c(OC)c1 | inactive: -0.49% |
| CCOc1ccccc1Nc1ncnc2ccccc12 | inactive: 1.01% |
| CCOC(=O)c1sc(Nc2nc(OC)cc(OC)n2)nc1C | inactive: -0.509% |
| O=C(Cn1c(NCCCO)nc2ccccc21)c1ccc(Br)cc1 | inactive: 0.155% |
| O=C(NCc1nnc(SCC(=O)N2CCCC2)o1)c1c(F)cccc1Cl | inactive: 0.709% |
| CCN(C[C@H]1N[C@@](C)(C(=O)OC)[C@H]2C(=O)N(C)C(=O)[C@@H]12)C(=O)Nc1ccccc1 | inactive: -0.115% |
| Nc1c(C(=O)OCC2CCCO2)c2nc3ccccc3nc2n1C1CCCC1 (centres undefined) | inactive: 0.779% |
| COC(=O)CCC(=O)N1CCOCCOCCN(C(=O)CCC(=O)OC)CCOCCOCC1 | inactive: 0.687% |
| O=C(Nc1nc2ccccc2n1CCN1CCCC1)C1CCCCC1 | inactive: -0.0621% |
| CCOC(=O)c1cc2n(n1)C(C(F)(F)F)CC(C)N2 (centres undefined) | inactive: 0.00685% |
| COc1ccccc1CCNC(=O)c1ccc(C)o1 | inactive: -0.4% |

Part of the list above in order of count of non-hydrogen atoms, high to low:

| Structure (SMILES) | activity change, negative = inhibition |
| --- | --- |
| COC(=O)CCC(=O)N1CCOCCOCCN(C(=O)CCC(=O)OC)CCOCCOCC1 | inactive: 0.687% |
| COc1ccc2cc3cc(C(=O)N4CCN(C5CCCCC5)CC4)oc3nc2c1 | inactive: -0.248% |
| O=C(Nc1nc2ccccc2n1CCN1CCCC1)C1CCCCC1 | inactive: -0.0621% |
| CCOc1ccccc1Nc1ncnc2ccccc12 | inactive: 1.01% |
